According to PubChem BioAssay AID1794844 (National Center for Advancing Translational Sciences (NCATS), 2023):
Out of some 2,800 compounds screened, fewer than 10 were called active. Inconclusive results (about 7%) are left out. Calls follow the shape of the dose curve; as a rule, active = well fitted inhibition curve with a large enough effect; inconclusive = small, poorly fitted or top-dose-only effect; inactive = no such curve, though single readings can be large or run the other way. The list shows a part of the results.

Chains of the proteins cited; added tags and fusions are not shown. Lines headed by an entry give the natural chain unless they say otherwise; changes in a name come on top.
UniProt C7C422: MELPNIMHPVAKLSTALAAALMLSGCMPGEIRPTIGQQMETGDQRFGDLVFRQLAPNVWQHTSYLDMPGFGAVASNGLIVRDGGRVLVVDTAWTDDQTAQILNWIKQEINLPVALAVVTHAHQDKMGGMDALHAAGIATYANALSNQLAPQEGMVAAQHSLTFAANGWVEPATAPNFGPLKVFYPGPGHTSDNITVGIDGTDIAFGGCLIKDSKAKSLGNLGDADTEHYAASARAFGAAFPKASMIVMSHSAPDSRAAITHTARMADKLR

Molecular target: Metallo-beta-lactamase type 2 (Klebsiella pneumoniae) (UniProt C7C422)
Assay: qHTS to identify inhibitors of the New Delhi Metallo-beta-lactamase (NDM): Nitrocefin screen against the machine-based learning selections. Also: % of control where 0% means no effect.
Conditions: NDM-1 enzyme, nitrocefin hydrolysis, absorbance 485 nm; activity, negative = inhibition: at the top concentration
Outline: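 NDM-1 (2 nM final) in 50 mM HEPES pH 7.0, 1 uM Zn2SO4, 0.01% Tween20 was preincubated with compounds for >30 min. Nitrocefin (16.7 uM final) was read at 485 nm after 15 min, and meropenem (50 uM final) at 300 nm after 30 min.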

Row | SMILES | activity, negative = inhibition
1 | CN(Cc1ccccc1)Cc1cc(C[C@H]2CNCC[C@H]2CC(=O)NCc2cccs2)no1 | inactive: -5.4%
2 | Nc1nc(C2CC(NC(=O)c3csc4c3CCCC4)C2)cc(=O)[nH]1 (configuration not stated) | inactive: -3.14%
3 | COc1ccc(CN2C(=O)O[C@@H]3CN(C4CCCCC4)C[C@@H]32)cc1OC | inactive: 11.1%
4 | Cc1ccc(CN2CC[C@H](c3nc4cc(C)ccc4o3)C2)cc1 | inactive: -1.73% [at 57.5 µM]
5 | c1ccc(Nc2cc3c(cn2)NCCN(Cc2ccccn2)C3)cc1 | inactive: -1.09% [at 57.5 µM]
6 | COC(=O)c1ccc2c(c1)nc1n2[C@@H](CNC(=O)NC2CCCCC2)COC1 | inactive: -4.82% [at 57.5 µM]
7 | COc1ccc2[nH]c(C(=O)N3CCn4nc(CO)cc4C3)c(C)c2c1 | inactive: 1.35%
8 | CC1(C(=O)NCc2ccncc2)CCc2cnc(NCc3ccccc3)nc21 (configuration not stated) | inactive: -5.86% [at 57.5 µM]
9 | CC[C@@H](NC(=O)c1cc(S(N)(=O)=O)ccc1C)C1CC(O)C1 (some centres not stated) | inactive: -0.119%
10 | Cc1cn2c(=O)cc(CN3CC(=O)N(C)c4ccccc4C3=O)nc2s1 | inactive: 2.81%
11 | CC(C)(O)CCc1cccc(C(=O)NC2CCN(c3ncccc3C#N)CC2)c1 | inactive: 0.121%
12 | CCCCCC(=O)N1CC[C@@H](CC(=O)NCc2cccs2)[C@@H](CC)C1 | inactive: 8.73% [at 57.5 µM]
13 | COc1ccc(S(=O)(=O)NC[C@H]2COCc3nc4c(C)cccc4n32)cc1 | inactive: -1.92% [at 57.5 µM]
14 | CNc1cccnc1OC1CCN(S(=O)(=O)c2ccc3c(c2)CCC3)C1 (configuration not stated) | inactive: 7.96%
15 | CCc1n[nH]c(CC2CCN(C(=O)COc3ccc(F)cc3)CC2)n1 | inactive: -0.784%
16 | O=C(Nc1ccc([C@@H](O)[C@H]2COCC(=O)N2Cc2ccc(F)cc2)cc1)c1ccccc1 | inactive: 5.69% [at 57.5 µM]
17 | CN(C)C(C(=O)N1CCN(c2ncccc2C#N)CC1)c1cccc(F)c1 (configuration not stated) | inactive: 0.693%
18 | CC1(C)[C@H](Cc2cc(CC3CCCCC3)on2)C[C@@H]1NC(=O)c1ccccc1 | inactive: 0.0808% [at 57.5 µM]
19 | CNC(=O)c1cccc(-c2cnc(Nc3cccnc3)c3c2CCO3)c1 | inactive: 0.884% [at 57.5 µM]
20 | C[C@@H](c1ccccc1)N1C(=O)[C@@H]2CN(C(=O)c3ccco3)CCN2C1=O | inactive: -7.93% [at 57.5 µM]
21 | CN1C[C@@H](F)[C@@H](OCc2nc3ccc(C(F)(F)F)cc3[nH]2)C1 | inactive: 2.4% [at 57.5 µM]

Excerpt: compounds 18 to 20
Row | SMILES | activity, negative = inhibition
18 | CC1(C)[C@H](Cc2cc(CC3CCCCC3)on2)C[C@@H]1NC(=O)c1ccccc1 | inactive: 0.0808% [at 57.5 µM]
19 | CNC(=O)c1cccc(-c2cnc(Nc3cccnc3)c3c2CCO3)c1 | inactive: 0.884% [at 57.5 µM]
20 | C[C@@H](c1ccccc1)N1C(=O)[C@@H]2CN(C(=O)c3ccco3)CCN2C1=O | inactive: -7.93% [at 57.5 µM]

Next part:

Row | SMILES | activity, negative = inhibition
22 | O=C(O)Cn1ccc2cc(OCc3cccc(-c4ccncc4)c3)cnc21 | inactive: 2.84% [at 57.5 µM]
23 | O=C1N(Cc2ccccn2)C[C@H]2CN(Cc3cccc(OC(F)(F)F)c3)CCN12 | inactive: -1.12% [at 57.5 µM]
24 | COc1cccc(-c2cc(C(=O)O)cc(S(=O)(=O)N3CCSCC3)c2)c1 | inactive: -5.42%
25 | COC(=O)c1cc2n(n1)CCN(C(=O)c1cccc3c1OCC3)C2 | inactive: 0.926%
26 | CNC(=O)[C@@H](Cc1ccccc1)N1CCC[C@H]1C(=O)N1CCCCC1 | inactive: 1.51% [at 57.5 µM]
27 | CC1=C[C@@H](CNS(C)(=O)=O)[C@H](C(C)C)C[C@H]1Cc1nc2ccc(Cl)cc2[nH]1 | inactive: 0.4% [at 57.5 µM]
28 | CC(C)NC(=O)N[C@H]1CCN(C(=O)c2cnccn2)[C@@H]1C(=O)N[C@@H](Cc1cccs1)C(N)=O | inactive: -2.8%
29 | Cc1ccc(-n2nc3n(c2=O)CCN(C(=O)c2ccccc2C)C3)cc1 | inactive: -10.6% [at 57.5 µM]
30 | Cc1ccccc1-c1[nH]nc2ncc(-c3cn[nH]c3)nc12 | inactive: 3.53% [at 76.7 µM]
31 | COCC(=O)N1CC2(Cc3ccccc3N(C(C)=O)C2)C1 | inactive: -0.625% [at 57.5 µM]
32 | Cc1ccc(S(=O)(=O)NC[C@H]2OC[C@@H](NCC(C)(C)C)[C@@H]2O)cc1 | inactive: -2.2% [at 57.5 µM]
33 | CC(=O)N[C@H]1C[C@@H](c2cnc3ccccc3c2)O[C@@H](C2CCCCC2)C1 | inactive: -5.83%
34 | Cn1ccc2c(C(=O)NCc3cccnc3)nc(-c3ccc(CO)cc3)cc21 | inactive: 1.42% [at 57.5 µM]
35 | CN1[C@@H](CCC(=O)N2CCc3ccccc32)CNC(=O)[C@@H]2[C@H]1CCN2Cc1ccc(O)cc1 | inactive: -1.15%
36 | COCC[C@]1(O)CCN(C(=O)c2cccc(OC)c2C)C[C@H]1C | inactive: 2.2%
37 | O=C(c1ccc(Cn2cnnn2)cc1)N1CCC2(CC1)[C@H](O)C[C@@H]2OCCO | inactive: -2.43%
38 | C[C@]1(O)CCN(C(=O)c2cnn3cc(CCO)cnc23)C[C@@H]1O | inactive: -3.01%
39 | O=C1NC(=O)C(c2ccc(-c3ccc4nc[nH]c(=O)c4c3)cc2)N1 (configuration not stated) | inactive: 0.866%
40 | COc1ccc(C(=O)NCC2(COc3ccc(S(C)(=O)=O)cc3)C[C@@H](O)[C@@H](O)C2)cc1 (some centres not stated) | inactive: -6.11%
41 | C#CCNC(=O)c1onc(-c2ccc(F)cc2)c1[C@H](C)O | inactive: 11.6% [at 76.7 µM]
42 | N#Cc1cccc(CN2CC[C@H](c3nnc(-c4ccco4)o3)C2)c1 | inactive: 3.22% [at 57.5 µM]

Row | SMILES | activity, negative = inhibition
43 | CCOc1ccc(C(=O)N2CCC3(CC2)N(C)C(=O)CS3(=O)=O)cc1 | inactive: -4.48%
44 | O=C1N[C@@H]2CCN(S(=O)(=O)c3ccccc3)[C@@H]2C(=O)N1c1ccc(F)cc1 | inactive: -3.54% [at 57.5 µM]
45 | Cc1ccc(CN2CC[C@@H]3[C@H]2C(=O)NC[C@H](CCC(=O)N2CCCC2)N3C)cc1 | inactive: -15.8% [at 57.5 µM]
46 | CC(C)(C)c1coc([C@@H]2COCCN2Cc2ccc(F)cc2)n1 | inactive: -0.248% [at 57.5 µM]
47 | O=c1cc(-c2ccncc2)oc2c(-c3cccc(CO)c3)nccc12 | inactive: 1.14% [at 57.5 µM]
48 | CC1=C[C@@H](CO)[C@H](C(C)C)C[C@H]1Cc1nnc(C(C)(C)C)o1 | inactive: 11.1% [at 57.5 µM]
49 | O=C(Nc1cccc(F)c1)N1C[C@@H]2C[C@H](C1)c1c(-c3cc4ccccc4s3)ccc(=O)n1C2 | inactive: -3.07%
50 | COCCOc1ccnc(-c2noc([C@@H]3CCCN3CC3CC3)n2)c1 | inactive: -5.18% [at 57.5 µM]
51 | O=C(N[C@@H]1CN(C(=O)Nc2ccccc2)CCC[C@H]1O)c1ccc(OCCN2CCOCC2)cc1 | inactive: -6.03%
52 | O=C(Cc1c[nH]c2ncc(-c3cccnc3)cc12)NCc1ccccc1 | inactive: -5.99% [at 57.5 µM]
53 | Cc1ncc2n1C(=O)N(C1CCN(Cc3cccnc3)CC1)C2 | inactive: -3.34% [at 57.5 µM]
54 | CC(C)c1ccc(N2C(=O)N[C@@H]3CCN(S(=O)(=O)c4cccs4)[C@@H]3C2=O)cc1 | inactive: 0.233% [at 57.5 µM]
55 | Cc1noc2nc3c(c(C(=O)N[C@H]4CC[C@H]4N)c12)CCC3 | inactive: -7.9%
56 | Cc1ccc([S+](=O)([O-])N2CCn3c(nnc3-c3ccccc3)C2)cc1 | inactive: -6.74%
57 | O=C(NCC1CN(Cc2ccncc2)CC12CN(c1ccccc1)C2)Nc1ccccc1 (configuration not stated) | inactive: -1.65% [at 57.5 µM]
58 | C[C@@H](Nc1ccc(-c2nc(CCCc3ccccc3)no2)cn1)C(N)=O | inactive: -5.67%
59 | O=C(Nc1ccc(F)cc1)N1CC[C@H]2COC(=O)N2c2cc(F)ccc2C1 | inactive: 0.112% [at 57.5 µM]
60 | CC(=O)c1cc(CC(=O)N2CCC3(CCCN(C(C)C)C3=O)C2)cs1 (configuration not stated) | inactive: 0.378%
61 | COc1ccc2nc([C@H]3CCN(C4CCN(C(C)=O)CC4)C3)[nH]c2c1 | inactive: 3.67% [at 57.5 µM]
62 | O=c1[nH]c(N2CCOCC2)nc2c1CCN(Cc1ccc(C(F)(F)F)cc1)CC2 | inactive: -0.254%
